Source: doi:10.1101/2021.06.15.448540
Positions count from the first letter of the chain named. These are yes or no findings as the source states them, for the method shown. Some entries that bind do so weakly or less than the wild type.

Assays:
Assay in all cases: MST
[1] = molecular target: T1, FhuCB with FhuB D170 and Q171 mutated to Ala (Escherichia coli) (UniProt P07821+P06972)
T1 sequence (chain, His-tag labeled with the red-tris-NTA 2nd generation dye (in the MST)) 1: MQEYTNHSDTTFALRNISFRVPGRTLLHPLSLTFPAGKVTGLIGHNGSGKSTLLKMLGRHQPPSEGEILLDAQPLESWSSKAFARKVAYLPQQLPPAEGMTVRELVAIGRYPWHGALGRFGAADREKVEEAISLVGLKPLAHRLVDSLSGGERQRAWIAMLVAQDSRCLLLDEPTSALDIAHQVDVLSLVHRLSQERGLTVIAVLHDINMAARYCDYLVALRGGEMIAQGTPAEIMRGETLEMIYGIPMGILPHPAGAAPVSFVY
T1 sequence (chain, His-tag labeled with the red-tris-NTA 2nd generation dye (in the MST)) 2: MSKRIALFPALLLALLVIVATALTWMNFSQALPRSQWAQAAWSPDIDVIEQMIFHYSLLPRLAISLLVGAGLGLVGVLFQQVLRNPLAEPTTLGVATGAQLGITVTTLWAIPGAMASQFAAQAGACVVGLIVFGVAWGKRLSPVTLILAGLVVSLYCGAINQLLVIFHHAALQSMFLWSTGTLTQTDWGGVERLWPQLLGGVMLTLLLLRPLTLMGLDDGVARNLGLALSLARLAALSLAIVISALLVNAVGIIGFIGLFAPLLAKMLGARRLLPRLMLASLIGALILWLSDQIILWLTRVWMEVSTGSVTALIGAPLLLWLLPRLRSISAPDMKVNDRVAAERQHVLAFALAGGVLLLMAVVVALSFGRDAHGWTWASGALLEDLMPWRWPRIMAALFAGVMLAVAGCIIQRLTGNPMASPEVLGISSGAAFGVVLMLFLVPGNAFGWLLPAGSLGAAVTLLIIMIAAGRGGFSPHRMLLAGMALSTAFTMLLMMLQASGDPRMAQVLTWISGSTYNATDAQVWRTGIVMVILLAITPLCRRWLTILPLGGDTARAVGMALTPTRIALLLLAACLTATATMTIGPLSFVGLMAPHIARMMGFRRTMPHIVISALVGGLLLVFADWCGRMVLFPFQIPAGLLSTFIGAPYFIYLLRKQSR

[2] = molecular target: T2, FhuCB with FhuB S57 mutated to Ala (Escherichia coli) (UniProt P07821+P06972)
T2 sequence (chain, His-tag labeled with the red-tris-NTA 2nd generation dye (in the MST)) 1: T1 sequence (chain, His-tag labeled with the red-tris-NTA 2nd generation dye (in the MST)) 1
T2 sequence (chain, His-tag labeled with the red-tris-NTA 2nd generation dye (in the MST)) 2: T1 sequence (chain, His-tag labeled with the red-tris-NTA 2nd generation dye (in the MST)) 2 with S57A, A170D, A171Q

[3] = molecular target: T3, FhuCB subcomplex (wild type; membrane subunit FhuB and ATPase FhuC) (Escherichia coli) (UniProt P07821+P06972)
T3 sequence (chain, His-tag labeled with the red-tris-NTA 2nd generation dye (in the MST)) 1: T1 sequence (chain, His-tag labeled with the red-tris-NTA 2nd generation dye (in the MST)) 1
T3 sequence (chain, His-tag labeled with the red-tris-NTA 2nd generation dye (in the MST)) 2: T1 sequence (chain, His-tag labeled with the red-tris-NTA 2nd generation dye (in the MST)) 2 with A170D, A171Q

binding [1]: binds | binding [2]: binds | binding [3]: binds
B1: FhuD (separately expressed periplasmic substrate-binding protein) (protein, UniProt P07822 31-296)
chain: AAIDPNRIVALEWLPVELLLALGIVPYGVADTINYRLWVSEPPLPDSVIDVGLRTEPNLELLTEMKPSFMVWSAGYGPSPEMLARIAPGRGFNFSDGKQPLAMARKSLTEMADLLNLQSAAETHLAQYEDFIRSMKPRFVKRGARPLLLTTLIDPRHMLVFGPNSLFQEILDEYGIPNAWQGETNFWGSTAVSIDRLAAYKDVDVLCFDHDNSKDMDALMATPLWQAMPFVRAGRFQRVPAVWFYGATLSAMHFVRVLDNAIGGKA
